Data taken from patent US20210017532A1 (INSTITUTE OF GENETICS AND DEVELOPMENTAL BIOLOGY CHINESE …, published 2021).

Tests used:
Experiment in all cases: BiFC in rice protoplasts
[1] = molecular target: N-terminus of YFP-tagged OsSPL17 (rice)
[2] = molecular target: N-terminus of YFP-tagged OsSPL3 (rice)
[3] = molecular target: N-terminus of YFP-tagged OsSPL4 (rice)
[4] = molecular target: N-terminus of YFP-tagged OsSPL5 (rice)

Measured: binding

B1: C-terminus of YFP-tagged OsOTUB1.1 (enzyme)
chain: MGGDYYHSCCGDPDPDLRAPEGPKLPYVGDKEPLSTLAAEFQSGSPILQEKIKLLGEQYDALRRTRGDGNCFYRSFMFSYLEHILETQDKAEVERILKKIEQCKKTLADLGYIEFTFEDFFSIFIDQLESVLQGHESSIGAEELLERTRDQMVSDYVVMFFRFVTSGEIQRRAEFFEPFISGLTNSTVVQFCKASVEPMGEESDHVHIIALSDALGVPIRVMYLDRSSCDAGNISVNHHDFSPEANSSDGAAAAEKPYITLLYRPGHYDILYPK
notes: BiFC construct expressed in rice protoplasts; also called cYFP-OsOTUB1; cYFP-OsOTUB1.1; not shown: C-terminal fragment of YFP from vector pSY-735-35S-cYFP-HA
binds: [1] | [2] | [3] | [4]

Results are given in words; binding and its absence hold for the method and conditions named. Binding can be weak; no strength is given. Tags and fused reporters may be left off the sequences shown.
